{"source": "PubChem BioAssay AID1508597 – Cure First – 2020", "test": "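Knock-downs altering ovarian cancer cell survival with or without PARP inhibitor rucaparib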 (primary screen)", "cell system": "human ovarian carcinoma lines grown from tumours: OCI-P5x (papillary serous) and OCI-C5x (clear cell)", "reagent": "siRNA pool against human genes, 1.25 pmol siRNA per well", "time to read-out": "72 h or 96 h, depending on the cell culture", "conditions": "rucaparib 20 µM (about IC30) or vehicle, present until read-out", "rucaparib or vehicle": "Vehicle", "cell line": "OCI-C5x (clear cell)", "measurement": "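Luminescent ATP-based viability assay read 72 or 96 h after transfection, depending on culture, given as normalised percent viability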", "reading the numbers": "viability, normalised: higher = more viable cells remaining", "call rule": "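Active when normalised viability falls below 80 percent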", "meaning of the calls": "active = viability under 80%; inactive = viability 80% or more", "note": "This is an unselected part of the about 2,100 reagents, in one setting of the screen. 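Calls flag viability under 80% in either arm, not effects specific to rucaparib; the reference for percent is not stated.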 Unmarked entries are inactive. A reagent listed more than once was tested more than once; the source does not tell the runs apart. Reagent sequences are not shown. Not given: the 100% reference."}
{"gene": "CDK18 (cyclin dependent kinase 18)", "PubChem SID": "SID405527874", "technical replicate": "1", "viability, normalised (%)": "48.1 (active)"}
{"gene": "CDK18 (cyclin dependent kinase 18)", "PubChem SID": "SID405527874", "technical replicate": "2", "viability, normalised (%)": "53.5 (active)"}
{"gene": "CDK18 (cyclin dependent kinase 18)", "PubChem SID": "SID405527874", "technical replicate": "3", "viability, normalised (%)": "44.9 (active)"}
{"gene": "SSRP1 (structure specific recognition protein 1)", "PubChem SID": "SID405526501", "technical replicate": "1", "viability, normalised (%)": "51.2 (active)"}
{"gene": "SSRP1 (structure specific recognition protein 1)", "PubChem SID": "SID405526501", "technical replicate": "1", "viability, normalised (%)": "47.4 (active)"}
{"gene": "SSRP1 (structure specific recognition protein 1)", "PubChem SID": "SID405526501", "technical replicate": "2", "viability, normalised (%)": "46.2 (active)"}
{"gene": "SSRP1 (structure specific recognition protein 1)", "PubChem SID": "SID405526501", "technical replicate": "2", "viability, normalised (%)": "67.7 (active)"}
{"gene": "SSRP1 (structure specific recognition protein 1)", "PubChem SID": "SID405526501", "technical replicate": "3", "viability, normalised (%)": "51.3 (active)"}
{"gene": "SSRP1 (structure specific recognition protein 1)", "PubChem SID": "SID405526501", "technical replicate": "3", "viability, normalised (%)": "36.3 (active)"}
{"gene": "BMI1 (BMI1 proto-oncogene, polycomb ring finger)", "PubChem SID": "SID405528034", "technical replicate": "1", "viability, normalised (%)": "42.2 (active)"}
{"gene": "BMI1 (BMI1 proto-oncogene, polycomb ring finger)", "PubChem SID": "SID405528034", "technical replicate": "2", "viability, normalised (%)": "35.5 (active)"}
{"gene": "BMI1 (BMI1 proto-oncogene, polycomb ring finger)", "PubChem SID": "SID405528034", "technical replicate": "3", "viability, normalised (%)": "32.3 (active)"}

Ordered by “viability, normalised (%)” (highest first): 5 of the entries above.
{"gene": "SSRP1 (structure specific recognition protein 1)", "PubChem SID": "SID405526501", "technical replicate": "2", "viability, normalised (%)": "67.7 (active)"}
{"gene": "SSRP1 (structure specific recognition protein 1)", "PubChem SID": "SID405526501", "technical replicate": "3", "viability, normalised (%)": "51.3 (active)"}
{"gene": "BMI1 (BMI1 proto-oncogene, polycomb ring finger)", "PubChem SID": "SID405528034", "technical replicate": "1", "viability, normalised (%)": "42.2 (active)"}
{"gene": "SSRP1 (structure specific recognition protein 1)", "PubChem SID": "SID405526501", "technical replicate": "3", "viability, normalised (%)": "36.3 (active)"}
{"gene": "BMI1 (BMI1 proto-oncogene, polycomb ring finger)", "PubChem SID": "SID405528034", "technical replicate": "2", "viability, normalised (%)": "35.5 (active)"}

Additional entries:
{"gene": "PKMYT1 (protein kinase, membrane associated tyrosine/threonine 1)", "PubChem SID": "SID405527601", "technical replicate": "1", "viability, normalised (%)": "63.2 (active)"}
{"gene": "PKMYT1 (protein kinase, membrane associated tyrosine/threonine 1)", "PubChem SID": "SID405527601", "technical replicate": "2", "viability, normalised (%)": "50.6 (active)"}
{"gene": "PKMYT1 (protein kinase, membrane associated tyrosine/threonine 1)", "PubChem SID": "SID405527601", "technical replicate": "3", "viability, normalised (%)": "49 (active)"}
{"gene": "EYA1 (EYA transcriptional coactivator and phosphatase 1)", "PubChem SID": "SID405526768", "technical replicate": "1", "viability, normalised (%)": "41.4 (active)"}
{"gene": "EYA1 (EYA transcriptional coactivator and phosphatase 1)", "PubChem SID": "SID405526768", "technical replicate": "2", "viability, normalised (%)": "38.3 (active)"}
{"gene": "EYA1 (EYA transcriptional coactivator and phosphatase 1)", "PubChem SID": "SID405526768", "technical replicate": "3", "viability, normalised (%)": "56.3 (active)"}
{"gene": "DYRK2 (dual specificity tyrosine phosphorylation regulated kinase 2)", "PubChem SID": "SID405527876", "technical replicate": "1", "viability, normalised (%)": "62.4 (active)"}
{"gene": "DYRK2 (dual specificity tyrosine phosphorylation regulated kinase 2)", "PubChem SID": "SID405527876", "technical replicate": "2", "viability, normalised (%)": "45 (active)"}
{"gene": "DYRK2 (dual specificity tyrosine phosphorylation regulated kinase 2)", "PubChem SID": "SID405527876", "technical replicate": "3", "viability, normalised (%)": "42.6 (active)"}
{"gene": "TSSK2 (testis specific serine kinase 2)", "PubChem SID": "SID405527574", "technical replicate": "1", "viability, normalised (%)": "76.4 (active)"}
{"gene": "TSSK2 (testis specific serine kinase 2)", "PubChem SID": "SID405527574", "technical replicate": "2", "viability, normalised (%)": "72.6 (active)"}
{"gene": "TSSK2 (testis specific serine kinase 2)", "PubChem SID": "SID405527574", "technical replicate": "3", "viability, normalised (%)": 80.2}
{"gene": "PRMT3 (protein arginine methyltransferase 3)", "PubChem SID": "SID405527202", "technical replicate": "1", "viability, normalised (%)": "51.2 (active)"}
{"gene": "PRMT3 (protein arginine methyltransferase 3)", "PubChem SID": "SID405527202", "technical replicate": "2", "viability, normalised (%)": "38.5 (active)"}
{"gene": "PRMT3 (protein arginine methyltransferase 3)", "PubChem SID": "SID405527202", "technical replicate": "3", "viability, normalised (%)": "48.1 (active)"}
{"gene": "NCOA1 (nuclear receptor coactivator 1)", "PubChem SID": "SID405527062", "technical replicate": "1", "viability, normalised (%)": "38.8 (active)"}
{"gene": "NCOA1 (nuclear receptor coactivator 1)", "PubChem SID": "SID405527062", "technical replicate": "2", "viability, normalised (%)": "40.4 (active)"}
{"gene": "NCOA1 (nuclear receptor coactivator 1)", "PubChem SID": "SID405527062", "technical replicate": "3", "viability, normalised (%)": "45.2 (active)"}
{"gene": "PRDM1 (PR/SET domain 1)", "PubChem SID": "SID405527179", "technical replicate": "1", "viability, normalised (%)": "37 (active)"}
{"gene": "PRDM1 (PR/SET domain 1)", "PubChem SID": "SID405527179", "technical replicate": "2", "viability, normalised (%)": "30.1 (active)"}
{"gene": "PRDM1 (PR/SET domain 1)", "PubChem SID": "SID405527179", "technical replicate": "3", "viability, normalised (%)": "38.4 (active)"}
